In patent US6127333A (priority 1998, dated 2000):

Test: general procedure: Boc solid-phase peptide synthesis; Boc-Val-PAM resin; DCC and HOBt
Settings: whole synthesis, scale 3 x 0.5 mmol, acetate salt

N-Acetyl-Ser-Ser-Ser-Chg-Gln-Ser-Val-OH
crude HPLC purity: 96%
